PubChem BioAssay AID1259308, NCATS | 2017
Shown is an unselected part of about 59,000 reagents. About 1,510 of them (2.6%) count as active. 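Calls use total luciferase alone and ignore viability, so some active siRNAs may act by altering cell number.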 Reagents against one gene are numbered here. Not all columns of the deposit are shown.

- Purpose: 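Genes whose loss raises luciferase production in HEK293 cells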 (primary screen)
- Cell system: human HEK293 embryonic kidney cells stably expressing firefly luciferase (HEK-CMV-Luc2-Hygro)
- Reagents: single siRNA against human genes, 0.8 pmol siRNA per well
- Time to read-out: 72 h
- Read-out: 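Luciferase light (ONE-Glo) measured on one replicate plate set and viability (CellTiter-Glo) on the other, scaled to a negative control siRNA, with robust z-scores and luciferase per cell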
- Scale: total luciferase, z-score: higher = more reporter protein produced
- Rule for the call: 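Active when the median/MAD z-score for overall luciferase is greater than 3; a gene was taken forward for validation with new siRNAs if at least two of its three siRNAs passed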
- Calls: active = raised luciferase; inactive = no rise

{"target gene":"LOC112268070","siRNA no.":1,"total luciferase, z-score":1.02,"Call":"inactive"}
{"target gene":"LOC112268070","siRNA no.":2,"total luciferase, z-score":1.25,"Call":"inactive"}
{"target gene":"LOC112268070","siRNA no.":3,"total luciferase, z-score":1.36,"Call":"inactive"}
{"target gene":"PDE11A (phosphodiesterase 11A)","siRNA no.":1,"total luciferase, z-score":-0.0441,"Call":"inactive"}
{"target gene":"PDE11A (phosphodiesterase 11A)","siRNA no.":2,"total luciferase, z-score":-0.391,"Call":"inactive"}
{"target gene":"PDE11A (phosphodiesterase 11A)","siRNA no.":3,"total luciferase, z-score":0.664,"Call":"inactive"}
{"target gene":"LCN9 (lipocalin 9)","siRNA no.":1,"total luciferase, z-score":0.575,"Call":"inactive"}
{"target gene":"LCN9 (lipocalin 9)","siRNA no.":2,"total luciferase, z-score":1.38,"Call":"inactive"}
{"target gene":"LCN9 (lipocalin 9)","siRNA no.":3,"total luciferase, z-score":-0.602,"Call":"inactive"}
{"target gene":"SMARCA4","siRNA no.":1,"total luciferase, z-score":1.58,"Call":"inactive"}
{"target gene":"SMARCA4","siRNA no.":2,"total luciferase, z-score":-0.177,"Call":"inactive"}
{"target gene":"SMARCA4","siRNA no.":3,"total luciferase, z-score":-0.174,"Call":"inactive"}

2 consecutive records already listed, quoted:
{"target gene":"LCN9 (lipocalin 9)","siRNA no.":2,"total luciferase, z-score":1.38,"Call":"inactive"}
{"target gene":"LCN9 (lipocalin 9)","siRNA no.":3,"total luciferase, z-score":-0.602,"Call":"inactive"}
